# Assay results taken from patent US20260022343A1 (AFFYXELL THERAPEUTICS, published 2026).
# Chains of the proteins cited; added tags and fusions are not shown. Residues count along the entry.
# UniProt P29965, residues 108-261: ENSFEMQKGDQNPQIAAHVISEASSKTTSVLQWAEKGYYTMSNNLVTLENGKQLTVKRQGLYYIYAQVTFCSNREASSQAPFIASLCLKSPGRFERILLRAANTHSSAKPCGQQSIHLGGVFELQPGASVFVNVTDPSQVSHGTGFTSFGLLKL
# No constants are given. Whether binding was seen depends on the method and setting. Some binding calls cover weakened binding; strength is not graded here.
# B1: anti-CD40L stefin A protein variant XT75 (SEQ ID NO: 105), secreted by gene-introduced MSC (eMSC) (designed binder)
# chain: IPGGLSEAKPATPEIQEIVDKVKPQLEEKTGETYGKLEAVQYKTQVVHYYVHYNDQGTNYYIKVRAGDNKYMHLKVFKSLWGENLFAKWEDLVLTGYQVDKNKDDELTGFAEAAAKEAAAKEAAAKEAAAKEAAAKEAAAKMIPGGLSEAKPATPEIQEIVDKVKPQLEEKTGETYGKLEAVQYKTQVVHYYVHYNDQGTNYYIKVRAGDNKYMHLKVFKSLWGENLFAKWEDLVLTGYQVDKNKDDELTGFAEAAAKEAAAKEAAAKEAAAKEAAAKEAAAKMIPGGLSEAKPATPEIQEIVDKVKPQLEEKTGETYGKLEAVQYKTQVVHYYVHYNDQGTNYYIKVRAGDNKYMHLKVFKSLWGENLFAKWEDLVLTGYQVDKNKDDELTGFAEAAAKEAAAKEAAAKEAAAKEAAAKEAAAKMIPRGLSEAKPATPEIQEIVDKVKPQLEEKTGETYGKLEAVQYKTQVLANFFQRRWPGSTNYYIKVRAGDNKYMHLKVFNGPWKFRNTDRGADRVLTGYQVDKNKDDELTGF
# notes: By their DNA these vectors appear to encode a further C-terminal Myc/His tag and a T2A remnant; also called AFX01-230 XT75(C); eMSC (XT75, w/EF1A)
# How the values were obtained:
# [1] = target: recombinant human CD40L (R&D Systems, 6420-CL-025/CF) (human) (UniProt P29965); assay: binding ELISA on a plate coated with recombinant human CD40L, concentrated culture fluid in 1/3 serial dilution, TMB substrate, O.D. 450 nm
# [2] = target: recombinant human CD40L (R&D Systems, 6420-CL-025/CF) (human) (UniProt P29965); assay: conclusion from binding ELISA and HEK-Blue CD40L assay
binder,measurement,setting,value
B1,binding,[1],binds
same,binding,[2],binds
